Experimental data taken from US8568986B2, “Method of selecting an agent that improves periodontal disease” (Kao Corporation, priority 2009, dated 2013).
Some entries share one result that the patent states for a list of compounds. At least one structure is not confirmed: it was looked up by name or label, or the drawing left a doubt.

Each compound was assayed on Vibrio harveyi BB170 strain (AI-2 reporter bacterium) (assay: AI-2 activity inhibitory effect, photogenesis intensity of AI-2 reporter bacterium after addition of DPD). Conditions: compared with the known AI-2 inhibitory compounds (positive controls).
Type: cell-based
Experimental: The method of screening an improving agent or preventive agent for periodontal disease of the present invention containing mixing a bacterium having an autoinducer-2-mediated quorum sensing system with a test drug and selecting a test drug having an autoinducer-2 activity inhibitory effect as an improving agent or preventive agent for periodontal disease. For example, a Vibrio harveyi BB 170 strain is prepared in a culture medium at 1000- to 10000-fold dilution (preferably 4000- to 5000-fold) and preincubated with a test compound solution at room temperature for 1 to 30 minutes (preferably for 10 minutes). Then, AI-2 was added to the resultant solution, which was subjected to aerobic shaking culture at 30±5° C. Two (2) to six (6) hours later (preferably four (4) hours later), the photogenesis intensity is measured with a chemiluminescence analyzer. The final concentration of AI-2 is from 0.001 to 100 μM (preferably 10 μM). The final concentration of the test compound solutions is from 0.0001 to 0.1% or from 1 to 100 μM. Each concentration is not limited thereto. The photogenesis intensity when a control obtained by adding only the AI-2 is mixed with the test compound solution is measured as a relative value to the photogenesis intensity of control so that the AI-2 activity inhibitory effect of the test compound can be measured. The bacterium having an autoinducer-2-mediated quorum sensing system is not particularly limited. A reporter bacterium which recognizes the autoinducer-2 thereby emitting light is preferred and dental bacteria and periodontal pathogens can also be used. Further, the bacterium having an autoinducer-2-mediated quorum sensing system which is collected from the oral cavity of a subject can also be used as a specimen.
A Vibrio harveyi BB170 strain (cultured in an AB medium at 30° C. overnight) was used as an AI-2 reporter bacterium and it was 4500-fold diluted with an AB culture medium to prepare a reporter bacterium liquid. A reporter bacterium liquid was mixed with each of the test drugs, which was preincubated at room temperature for 10 minutes, followed by addition of DPD and aerobic shaking culture at 30° C. Four (4) hours later, the photogenesis intensity was measured with the chemiluminescence analyzer (LB940 type, manufactured by Berthold Japan co. ltd.). AI-2 was quantified from the measured photogenesis intensity in the same manner as described in Example 1.
The amount of AI-2 was a relative value to the amount of DPD of the control (the amount of AI-2) when one obtained by adding only the DPD without adding the test drugs was used as a control.
In the case of COc1ccc(C2OC(=O)C=C2Br)cc1 (stereo not shown) [Compound 1, 4-bromo-5-(4-methoxyphenyl)-2(5H)-furanone], the “AI-2 activity inhibitory effect” value is reported as “equal to or more than that of the known AI-2 inhibitory compound”.
For O=C1OC(O)C(Br)=C1Br (stereo not shown) [Compound 2, 3,4-dibromo-5-hydroxy-2(5H)-furanone], the “AI-2 activity inhibitory effect” value was “equal to or more than that of the known AI-2 inhibitory compound”.
In the case of COc1ccc(C2(OC)OC(=O)C=C2Br)cc1 (stereo not shown) [Compound 3, 4-bromo-5-methoxy-5-(4-methoxyphenyl)-2(5H)-furanone], the “AI-2 activity inhibitory effect” value is reported as “equal to or more than that of the known AI-2 inhibitory compound”.
COc1ccc(C2(Oc3ccc(C(=O)O)cc3)OC(=O)C=C2Br)cc1 (stereo not shown) [Compound 4, 4-{[3-bromo-2-(4-methoxyphenyl)-5-oxo-2,5-dihydro-2-furanyl]oxy}benzoate] was tested, and the “AI-2 activity inhibitory effect” value was “equal to or more than that of the known AI-2 inhibitory compound”.
